No constants are given. Whether binding was seen depends on the method and setting. Some results given as binding are weak or reduced against the parent protein; the word gives no strength. Where a sequence is shown, tags or fusion partners need not be part of it.
Experiments:
[1] = target: T1, recombinant human MCP-1 (CCL2) (human, UniProt P13500 24-99); assay: direct ELISA, chemokine coated at 100 ng/ml, CCR2(E3)-IgG at 5 ug/ml
T1 construct: Bought recombinant protein; also called RHMCP-1; monocyte chemoattractant protein-1

Chains of the proteins cited; added tags and fusions are not shown. Residues count along the entry.
UniProt P13500, residues 24-99: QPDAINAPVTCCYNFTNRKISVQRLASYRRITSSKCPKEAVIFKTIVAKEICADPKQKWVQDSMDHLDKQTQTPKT

[2] = target: T1, recombinant human MCP-1 (CCL2); assay: direct ELISA (FIG. 3 legend)

binding [1]: binds
binding [2]: binds
B1: CCR2(E3)-IgG fusion protein (Fc fusion)
chain: GLSNCESTSQLDQATQVTET
notes: also called Ig-E3; CCR2-IgG; not shown: constant region (Hinge-CH2-CH3) of human IgG1 heavy chain, ligated downstream of CCR2 (E3)

Source: patent US20110033521A1 (RAPPAPORT FAMILY INSTITUTE FOR RESEARCH IN THE MEDICAL …, published 2011)
